This is an account of results in the supplement of paper PMC8975748.

Each structure is given as a SMILES string. Counter-ions that a name gives are not always drawn. ± gives the standard deviation of the averaged measurements. The list shows a part of the results. Values are raw readings; no control value is given beside them.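 A single yeast strain with four plasmids, each encoding a fluorescent protein and an amino-acid or uracil biosynthesis gene, seeds the community. Stochastic plasmid loss yields mixed prototroph and auxotroph subpopulations. Fixed cells were counted via automated confocal fluorescence imaging; DMSO-treated wells were the vehicle reference.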

For the assay, the system named is Saccharomyces cerevisiae BY4741 SeMeCo community. Nature of the assay: imaged cell count per well (cells); higher = more cells. The conditions noted are these: 10 µM; 24 h; SM minimal medium. Here is the method: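 Same SeMeCo high-content imaging drug screen: Selleck FDA-approved drugs at 10 µM, 24 h in SM medium, 384-well plates, 3 replicates.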
As to `CN(C)CCc1c[nH]c2ccc(CS(=O)(=O)N3CCCC3)cc12` [Almotriptan Malate], the “imaged cell count per well” value was determined as 22700 ± 1600. Take `O=C(N[C@H](CO)[C@H](O)c1ccc([N+](=O)[O-])cc1)C(Cl)Cl` [Chloramphenicol]: the “imaged cell count per well” value amounted to 20900 ± 4200. With `N#Cc1ccc2[nH]cc(CCCCN3CCN(c4ccc5oc(C(N)=O)cc5c4)CC3)c2c1` [Vilazodone HCl] the figure was 24900 ± 3900; with `CS(=O)(=O)c1ccc([C@@H](O)[C@@H](CO)NC(=O)C(Cl)Cl)cc1` [Thiamphenicol], 23300 ± 4000. For `COc1ccc2cc3[n+](cc2c1OC)CCc1cc2c(cc1-3)OCO2` [Berberine chloride], the “imaged cell count per well” value was found to be 20800 ± 840.

On to `Cc1cccc(N(C)C(=S)Oc2ccc3ccccc3c2)c1` [Tolnaftate], for which the “imaged cell count per well” value worked out at 26700 ± 2000.

Regarding `Nc1c(Br)cc(Br)cc1CN[C@H]1CC[C@H](O)CC1` [Ambroxol HCl], the “imaged cell count per well” value is 30800 ± 9400. On to `CCOC(=O)C1=C(C)NC(C)=C(C(=O)OCC)C1c1ccccc1/C=C/C(=O)OC(C)(C)C` [Lacidipine], for which the “imaged cell count per well” value is 22100 ± 6300. Regarding `CCN(CC)CCNC(=O)c1cc(S(C)(=O)=O)ccc1OC` [Tiapride Hydrochloride], the “imaged cell count per well” value stood at 13200 ± 6900. The value for `C[C@@H]1[C@H](O)[C@@H](C)/C=C/C=C/C=C/C=C/C=C/C=C/C=C/[C@H](O[C@@H]2O[C@H](C)[C@@H](O)[C@H](N)[C@@H]2O)C[C@@H]2O[C@](O)(C[C@@H](O)C[C@@H](O)[C@H](O)CC[C@@H](O)C[C@@H](O)CC(=O)O[C@H]1C)C[C@H](O)[C@H]2C(=O)O` [Amphotericin B] was 2480 ± 660; that for `CC1(C)[C@H](C(=O)O)N2C(=O)C[C@H]2S1(=O)=O` [Sulbactam sodium] was 18500 ± 4600; that for `CCCCN(CCCC)CC(O)c1cc(Cl)cc2c1-c1ccc(Cl)cc1/C2=C/c1ccc(Cl)cc1` (centres undefined) [Lumefantrine] was 22300 ± 3900. Turning to `NC(=O)N/N=C/c1ccc([N+](=O)[O-])o1` [Nitrofural], the “imaged cell count per well” value amounted to 13400 ± 7300. In the case of `CC(C)(C)C(=O)C(Oc1ccc(Cl)cc1)n1ccnc1` (centres undefined) [Climbazole], the “imaged cell count per well” value was 4990 ± 2600. As to `CNS(=O)(=O)CCc1ccc2[nH]cc(C3CCN(C)CC3)c2c1` [Naratriptan HCl], the “imaged cell count per well” value came out at 23200 ± 4400. For `CCn1cc(C(=O)O)c(=O)c2cc(F)c(N3CCNC(C)C3)c(F)c21` (centres undefined) [Lomefloxacin HCl], the “imaged cell count per well” value came out at 25240 ± 160. In the case of `CN1CCC[C@@H]1Cc1c[nH]c2ccc(CCS(=O)(=O)c3ccccc3)cc12` [Eletriptan HBr], the “imaged cell count per well” value came out at 26400 ± 9000. For the compound `CC(NCCC(c1ccccc1)c1ccccc1)c1ccccc1` (centres undefined) [Fendiline hydrochloride], the “imaged cell count per well” value came out at 28900 ± 4200. With `COc1ccc2c3c1O[C@H]1C[C@@H](O)C=C[C@@]31CCN(C)C2` [Galanthamine HBr], the “imaged cell count per well” value was determined as 30600 ± 1600.

In the case of `C[C@H](Nc1ncnc2nc[nH]c12)c1cc2cccc(Cl)c2c(=O)n1-c1ccccc1` [Duvelisib (IPI-145, INK1197)], the “imaged cell count per well” value stood at 21300 ± 4600. Regarding `OCCN(CCO)c1nc(N2CCCCC2)c2nc(N(CCO)CCO)nc(N3CCCCC3)c2n1` [Dipyridamole], the “imaged cell count per well” value was 27200 ± 4100.

Take `CC[C@@H]1/C=C(\C)C[C@H](C)C[C@H](OC)[C@H]2O[C@@](O)(C(=O)C(=O)N3CCCC[C@H]3C(=O)O[C@H](/C(C)=C/[C@@H]3CC[C@@H](O)[C@H](OC)C3)[C@H](C)[C@@H](O)CC1=O)[C@H](C)C[C@@H]2OC` [Ascomycin (FK520)]: the “imaged cell count per well” value stood at 27500 ± 1300. With `C[C@@H](O)[C@H]1C(=O)N2C(C(=O)O)=C([C@H]3CCCO3)S[C@H]12` [Faropenem Sodium] the figure was 19800 ± 9100. With `COc1cccc2c1C(=O)c1c(O)c3c(c(O)c1C2=O)C[C@@](O)(C(=O)CO)C[C@@H]3O[C@H]1C[C@H](N)[C@H](O[C@@H]2CCCCO2)[C@H](C)O1` [Pirarubicin] the figure was 27100 ± 4200; with `CN(C)CCC=C1c2ccccc2CCc2ccccc21` [Amitriptyline HCl], 25600 ± 4800. Take `CC/C(=C(/CC)c1ccc(O)cc1)c1ccc(O)cc1` [Diethylstilbestrol]: the “imaged cell count per well” value amounted to 22100 ± 2300. Take `COc1cc([C@@H]2c3cc4c(cc3[C@@H](O[C@@H]3O[C@@H]5CO[C@@H](C)O[C@H]5[C@H](O)[C@H]3O)[C@H]3COC(=O)[C@H]23)OCO4)cc(OC)c1O` [Etoposide]: the “imaged cell count per well” value is 23600 ± 2000. Take `C#C[C@]1(O)CC[C@H]2[C@@H]3CCc4cc(O)ccc4[C@H]3CC[C@@]21C` [Ethinyl Estradiol]: the “imaged cell count per well” value came out at 23000 ± 2500.

With `C=CC1=C(C(=O)O)N2C(=O)[C@@H](NC(=O)/C(=N\OCC(=O)O)c3csc(N)n3)[C@H]2SC1` [Cefixime], the “imaged cell count per well” value was 26000 ± 1600. Regarding `CC(C)C(=O)Oc1ccc(CO)cc1[C@H](CCN(C(C)C)C(C)C)c1ccccc1` [Fesoterodine Fumarate], the “imaged cell count per well” value was 27400 ± 5000. As to `CNCc1cc(-c2ccccc2F)n(S(=O)(=O)c2cccnc2)c1` [Vonoprazan Fumarate (TAK-438)], the “imaged cell count per well” value turned out to be 21300 ± 6900.

Take `O=S(=O)(O)CCCCOC[C@H]1O[C@@H]2O[C@H]3[C@H](O)[C@@H](O)[C@@H](O[C@H]4[C@H](O)[C@@H](O)[C@@H](O[C@H]5[C@H](O)[C@@H](O)[C@@H](O[C@H]6[C@H](O)[C@@H](O)[C@@H](O[C@H]7[C@H](O)[C@@H](O)[C@@H](O[C@H]8[C@H](O)[C@@H](O)[C@@H](O[C@H]1[C@H](O)[C@H]2O)O[C@@H]8CO)O[C@@H]7COCCCCS(=O)(=O)O)O[C@@H]6COCCCCS(=O)(=O)O)O[C@@H]5COCCCCS(=O)(=O)O)O[C@@H]4COCCCCS(=O)(=O)O)O[C@@H]3COCCCCS(=O)(=O)O`: the “imaged cell count per well” value amounted to 22600 ± 6700. With `CCCCNC(=O)NS(=O)(=O)c1ccc(C)cc1` [Tolbutamide] the figure was 22500 ± 6200; with `CCCN[C@H]1CCc2nc(N)sc2C1` [Pramipexole 2HCl Monohydrate], 21500 ± 4800. As to `CO[C@@]1(NC(=O)CSC[C@@H](N)C(=O)O)C(=O)N2C(C(=O)O)=C(CSc3nnnn3C)CS[C@@H]21` [Cefminox Sodium], the “imaged cell count per well” value was 22600 ± 9800. Consider `CCN(CC)CCNC(=O)c1cc(Cl)c(N)cc1OC` [Metoclopramide], for which the “imaged cell count per well” value is 27400 ± 6400. For the compound `COc1ccc(CC2c3cc(OC)c(OC)cc3CC[N+]2(C)CCC(=O)OCCCCCOC(=O)CC[N+]2(C)CCc3cc(OC)c(OC)cc3C2Cc2ccc(OC)c(OC)c2)cc1OC` (centres undefined) [Atracurium Besylate], the “imaged cell count per well” value turned out to be 25100 ± 1500. With `Cc1cc(CC(C)CC(C)(C)C)n(O)c(=O)c1` (centres undefined) [Piroctone Olamine] the figure was 922 ± 360; with `CO[C@@H]1[C@@H](OC(N)=O)[C@@H](O)[C@H](Oc2ccc3c(O)c(NC(=O)c4ccc(O)c(CC=C(C)C)c4)c(=O)oc3c2C)OC1(C)C` [Novobiocin Sodium], 21900 ± 2100.
